Test results: PubChem BioAssay AID1117319 (Southern Research Institute, 2015)
The campaign covered roughly 260,000 compounds. About 1,500 (0.58%) were called active. Inconclusive results, whose numbers are uncertain, are shown with a selection of clear calls.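 Rule for the calls: active = inhibition above a set limit at one or more doses, reproduced on every date tested; inconclusive = results disagree between test dates, or hit never tested in dose response; inactive = the rest.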

The chains behind the UniProt entries cited, without tags or fusion partners. Where a name states a change or a piece, a line headed by the entry shows the natural chain unless it says otherwise.
UniProt P69720: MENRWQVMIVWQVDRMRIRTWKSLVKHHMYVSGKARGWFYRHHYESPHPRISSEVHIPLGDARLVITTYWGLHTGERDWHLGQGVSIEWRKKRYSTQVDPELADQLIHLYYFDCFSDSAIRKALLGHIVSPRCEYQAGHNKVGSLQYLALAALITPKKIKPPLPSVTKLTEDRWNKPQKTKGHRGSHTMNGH
UniProt P69721: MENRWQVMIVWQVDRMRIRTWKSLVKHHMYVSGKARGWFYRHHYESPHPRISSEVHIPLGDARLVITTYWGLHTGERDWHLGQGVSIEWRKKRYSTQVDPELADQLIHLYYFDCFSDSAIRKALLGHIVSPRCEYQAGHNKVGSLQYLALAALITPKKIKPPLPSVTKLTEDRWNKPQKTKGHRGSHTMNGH
UniProt P69722: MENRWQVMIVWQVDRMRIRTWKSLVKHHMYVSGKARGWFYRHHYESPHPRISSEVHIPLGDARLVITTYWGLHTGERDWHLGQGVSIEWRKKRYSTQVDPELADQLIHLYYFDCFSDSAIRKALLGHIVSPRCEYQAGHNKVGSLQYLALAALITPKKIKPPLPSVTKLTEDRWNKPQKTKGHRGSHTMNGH
UniProt P69723: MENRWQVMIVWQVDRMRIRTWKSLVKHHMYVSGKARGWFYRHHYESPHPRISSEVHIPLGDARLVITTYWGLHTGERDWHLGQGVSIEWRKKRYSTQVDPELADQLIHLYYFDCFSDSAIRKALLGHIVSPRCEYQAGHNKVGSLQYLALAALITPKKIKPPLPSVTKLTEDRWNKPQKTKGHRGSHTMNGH
UniProt Q9HC16: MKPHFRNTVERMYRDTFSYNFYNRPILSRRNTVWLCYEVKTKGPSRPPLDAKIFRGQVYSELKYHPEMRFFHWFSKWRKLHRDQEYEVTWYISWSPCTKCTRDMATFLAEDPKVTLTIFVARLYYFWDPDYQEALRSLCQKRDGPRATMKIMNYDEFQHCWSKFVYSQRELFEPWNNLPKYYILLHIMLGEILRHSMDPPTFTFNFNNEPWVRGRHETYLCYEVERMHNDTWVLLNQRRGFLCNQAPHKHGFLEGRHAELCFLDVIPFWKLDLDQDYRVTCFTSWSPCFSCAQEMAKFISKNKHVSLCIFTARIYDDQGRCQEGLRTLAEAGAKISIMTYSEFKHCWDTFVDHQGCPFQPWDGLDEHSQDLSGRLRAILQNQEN

Target: Virion infectivity factor (Human immunodeficiency virus type 1 group M subtype B (isolate BH10)) + Virion infectivity factor (Human immunodeficiency virus type 1 group M subtype B (isolate BRU/LAI)) + Virion infectivity factor (Human immunodeficiency virus type 1 group M subtype B (isolate PCV12)) + Virion infectivity factor (Human immunodeficiency virus type 1 group M subtype B (isolate HXB2)) + DNA dC->dU-editing enzyme APOBEC-3G (Homo sapiens) (UniProt P69720+P69721+P69722+P69723+Q9HC16)
Assay: inhibitors of Vif binding to APOBEC3G peptide, primary screen, biochemical, TR-FRET, GST-Vif 1-94, biotin-A3G peptide, dose response retest (AID 1117319);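 note: Vif residues 1-94 fused to GST binding biotinylated APOBEC3G peptide 110-148; 0% = full assay without inhibitor and 100% = GST in place of GST-Vif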
Conditions: active compounds read high

Row | SMILES | inhibition
1 | Cc1ccc2nc(NC(=O)c3ccc(-c4nc5ccccc5s4)s3)sc2c1 | inconclusive: 36.9%
2 | CCOC(=O)Cn1c(CN2CCOCC2)nc2c1c(=O)n(C)c(=O)n2C | inconclusive: 37.6%
3 | O=C(Cn1c(=O)[nH]c2ccsc2c1=O)N1CCN(c2ccc(F)cc2)CC1 | inconclusive: 34.5%
4 | [O-]/C(=C(\C(=S)NCc1ccco1)[n+]1ccccc1)c1ccccc1Br | inconclusive: 40.1%
5 | Cc1csc(NC(=O)C2CCN(C(=O)CSc3nnc(C)n3Cc3ccccc3)CC2)n1 | inconclusive: 57.9%
6 | Cn1cccc1CC(=O)N/N=C/c1ccc(Cl)cc1 | inconclusive: 49.9%
7 | COc1cccc(C(C)=NNc2ccc([N+](=O)[O-])cc2[N+](=O)[O-])c1OC | inactive: 0.32%
8 | CCc1cc2ccc(OC)cc2nc1SCC(=O)NNC(=O)c1ccco1 | inactive: -10%
9 | Cc1ccc(N2NC(=O)/C(=C\c3cc4c(cc3[N+](=O)[O-])OCO4)C2=O)cc1C | inactive: 27.7%
10 | Cn1cccc1Cc1nnc(SCC(=O)Nc2ccc3c(c2)OCO3)n1-c1ccc(F)cc1 | inconclusive: 48.7%
11 | CCOc1ccc(NC(=O)N(CCC(C)C)C2CCN(C(C)=O)CC2)cc1 | inconclusive: 35.6%
12 | C/C(=N\NC(N)=O)c1ccc(Cl)cc1 | inconclusive: 53.5%
13 | CN(C)/N=C/C=C1\CCC/C(=C\c2ccc(F)c(F)c2)C1=O | inconclusive: 33.7%
14 | O=C(CCCc1ccccc1)NCCC1=CCCCC1 | inconclusive: 33.2%
15 | CCC(CC)c1nnc(NC(=O)/C=C/c2ccco2)s1 | inconclusive: 44.5%
16 | COc1cc2c(cc1OC)CN(C(=O)c1ccc([N+](=O)[O-])o1)CC2 | inconclusive: 34.3%
17 | Oc1ccc2ccccc2c1N=Nc1nccs1 | inconclusive: 46%
18 | CN(CC(=O)Nc1cccc2c1CCCC2)S(=O)(=O)c1ccc(Br)cc1 | inconclusive: 51%
19 | COc1cccc(NC(=O)Cn2c(CCC(=O)O)ccc2-c2cccs2)c1 | inconclusive: 33.8%

Row | SMILES | inhibition
20 | Cc1ccc(C)c(NC(=O)C2CC=CCC2C(=O)O)c1 (stereo unspecified) | inactive: -2.09%
21 | O=C(CSc1nnc(CNC(=O)c2ccccc2)o1)NCc1ccccc1 | inconclusive: 34.1%
22 | CCc1ccc(-n2c(O)c(C=NCCN(CC)CC)c(=O)[nH]c2=O)cc1 | inactive: 1.67%
23 | O=C(CSc1nc2cc(C(=O)O)ccc2c(=O)n1-c1ccc(F)cc1)Nc1ccc(F)c(F)c1F | inconclusive: 33.6%
24 | COc1ccccc1C(=O)NC(CCSC)C(=O)NNC(=O)c1ccc(F)cc1 (stereo unspecified) | inactive: -6.52%
25 | Cc1cccc(Cn2ncc(Cl)c(Cl)c2=O)c1 | inconclusive: 34.9%
26 | Cn1c(Cn2nnc3ccccc32)nnc1SCC(=O)N1c2ccccc2CCc2ccccc21 | inconclusive: 45.5%
27 | CCc1ccc(-c2nc(CSCC(=O)N3CCN(c4ccccn4)CC3)c(C)o2)cc1 | inconclusive: 34.5%
28 | Cc1ccc(SCc2[nH]nc3c2C(c2ccco2)C(C#N)=C(N)O3)cc1 (stereo unspecified) | inconclusive: 35.5%
29 | CC(/C=N/Nc1nnc(C)c(=O)[nH]1)=C\c1ccccc1 | inconclusive: 39.8%
30 | COCCn1c(C)cc(C(=O)CSc2nnc(-c3cccnc3)n2-c2ccccc2F)c1C | inconclusive: 57.3%
31 | CC(C)C(=O)Nc1cccnc1 | inconclusive: 56%
32 | CN1CCN(S(=O)(=O)c2ccc(N(C)Cc3cccs3)nc2)CC1 | inconclusive: 59.3%
33 | Cc1ccccc1S(=O)(=O)Nc1nc2ccccc2nc1NCCO | inconclusive: 37.5%
34 | CC(CCc1ccccc1)N(C)CC(O)c1cccc([N+](=O)[O-])c1 (stereo unspecified) | inactive: -11.1%
35 | CN1C(C(=O)NCc2cccc(C(F)(F)F)c2)CC2Cn3c(nc4ccccc43)C21 (stereo unspecified) | inconclusive: 56.7%
36 | O=C(CNC(=O)c1cc2ccccc2o1)NCc1cccs1 | inactive: 15.4%
37 | COc1ccccc1C(=O)NN1C(=O)/C(=C/c2cccn2C)SC1=S | inconclusive: 62%
38 | CC(=O)NCCc1nc2ccccc2n1CCOc1cccc(C)c1 | inconclusive: 36.2%

Some of the entries above in another layout:
Row	SMILES	inhibition
33	Cc1ccccc1S(=O)(=O)Nc1nc2ccccc2nc1NCCO	inconclusive: 37.5%
34	CC(CCc1ccccc1)N(C)CC(O)c1cccc([N+](=O)[O-])c1 (stereo unspecified)	inactive: -11.1%

Following part:

Row | SMILES | inhibition
39 | CCOC(=O)N1CCN(C(=O)/C=C/c2ccc(OC)cc2)CC1 | inconclusive: 40.6%
40 | Oc1cccc2cc3cccc(O)c3c(O)c12 | inactive: -5.93%
41 | Cc1cccc(C(=O)N=c2c(C#N)cc3c(=O)n4cccc(C)c4nc3n2Cc2ccco2)c1 | inconclusive: 44.5%
42 | N#C/C(=C\c1cn(-c2ccccc2)nc1-c1cc2ccccc2o1)c1nc2ccccc2[nH]1 | inconclusive: 38.1%
43 | Nc1ccccc1C(=O)/C=C/c1ccc2c(c1)OCO2 | inactive: 3.13%
44 | Cn1c(=O)oc2cc(S(=O)(=O)NCCc3ccccc3)ccc21 | inconclusive: 49.3%
45 | CCOc1ccc(Nc2nnc(Cc3ccc(OC)cc3)c(=O)[nH]2)cc1 | inconclusive: 38.4%
46 | Cc1cc(C)nc(SCc2nnc(SCC(=O)Nc3nc(-c4ccccc4)cs3)n2C)n1 | inactive: -21.4%
47 | COc1ccc(N=C2CCCN2CC(N)=O)cc1 | inconclusive: 35.4%
48 | CCN(C(=O)CSc1nncs1)c1c(N)n(Cc2ccccc2)c(=O)[nH]c1=O | inconclusive: 49.8%
49 | Cc1cc(C(=O)CSc2nc(N)cc(=O)[nH]2)c(C)n1CCc1ccc(Cl)cc1 | inconclusive: 50.9%
50 | Cc1cc2c3c(c1)C1(C(=O)N3C(C)(C)CC2C)C(C#N)=C(N)Oc2cc(O)ccc21 (stereo unspecified) | inconclusive: 40.8%
51 | O=C(Cn1nc(-c2ccc3c(c2)OCCO3)ccc1=O)Nc1ccc(N2CCOCC2)cc1 | inconclusive: 36.3%
52 | Nc1ccc(S(=O)(=O)N2CCOCCOCCOCCOCCOCC2)cc1 | inactive: 1.81%
53 | Cc1ccc(N2/C(=N/c3nc(C)cc(C)n3)NC(=O)CC2C(=O)O)cc1 (stereo unspecified) | inconclusive: 47.8%
54 | COc1cc(C)c(C(C)C)cc1S(=O)(=O)NCCCn1ccnc1 | inconclusive: 40.7%
55 | CCOC(=O)c1ccc(Nc2cc(C)nc(C)c2C(=O)OCC)cc1 | inconclusive: 43.1%
56 | Cc1ccc(Cn2c(=O)n(Cc3ccco3)c(=O)c3ccccc32)cc1 | inconclusive: 33.6%

For convenience, part of the list above:
Row | SMILES | inhibition
43 | Nc1ccccc1C(=O)/C=C/c1ccc2c(c1)OCO2 | inactive: 3.13%
44 | Cn1c(=O)oc2cc(S(=O)(=O)NCCc3ccccc3)ccc21 | inconclusive: 49.3%
45 | CCOc1ccc(Nc2nnc(Cc3ccc(OC)cc3)c(=O)[nH]2)cc1 | inconclusive: 38.4%
